These are yes or no findings as the source states them, for the method shown. For some of these results: In cells and extracts the contact can be indirect. Some results given as binding are weak or reduced against the parent protein; the word gives no strength.
Key:
[1] = biological target: Myc-tagged PRR5 (UniProt P85299); test: co-IP; TAP-tagged BRCA1 tBRCT and Myc-tagged RICTOR, PRR5 or SIN1 co-transfected into 293FT cells; immunoprecipitation with α-MYC antibody, CBP blot
[2] = biological target: Myc-tagged RICTOR (UniProt Q6R327); test: as above
[3] = biological target: Myc-tagged SIN1 (UniProt Q9BPZ7); test: as above
[4] = biological target: BRCA1 tandem BRCT domain (tBRCT) wild type, GAL4 DNA binding domain fusion (human) (UniProt P38398); test: two-hybrid; ProQuest Two-Hybrid system, MaV203 yeast; GAL4-DBD BRCA1 tBRCT (pDEST32) with GAL4-AD PRR5, SIN1 or RICTOR (pDEST22); HIS3 selection (-Leu, -Trp, -His), ten-fold serial dilutions, 3AT up to 100 mM

By UniProt entry, the sequences of proteins in these tests, tags left out. Residues count along the entry.
UniProt P85299: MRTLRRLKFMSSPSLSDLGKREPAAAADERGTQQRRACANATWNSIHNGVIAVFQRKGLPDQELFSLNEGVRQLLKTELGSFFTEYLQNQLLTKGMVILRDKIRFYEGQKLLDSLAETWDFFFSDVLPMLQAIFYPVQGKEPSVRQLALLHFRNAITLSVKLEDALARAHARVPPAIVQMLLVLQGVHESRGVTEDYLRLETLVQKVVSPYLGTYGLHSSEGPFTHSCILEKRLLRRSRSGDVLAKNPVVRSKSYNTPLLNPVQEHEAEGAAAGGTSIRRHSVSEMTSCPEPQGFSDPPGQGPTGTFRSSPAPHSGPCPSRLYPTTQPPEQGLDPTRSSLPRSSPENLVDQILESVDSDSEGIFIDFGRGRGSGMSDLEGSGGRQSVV
UniProt Q6R327: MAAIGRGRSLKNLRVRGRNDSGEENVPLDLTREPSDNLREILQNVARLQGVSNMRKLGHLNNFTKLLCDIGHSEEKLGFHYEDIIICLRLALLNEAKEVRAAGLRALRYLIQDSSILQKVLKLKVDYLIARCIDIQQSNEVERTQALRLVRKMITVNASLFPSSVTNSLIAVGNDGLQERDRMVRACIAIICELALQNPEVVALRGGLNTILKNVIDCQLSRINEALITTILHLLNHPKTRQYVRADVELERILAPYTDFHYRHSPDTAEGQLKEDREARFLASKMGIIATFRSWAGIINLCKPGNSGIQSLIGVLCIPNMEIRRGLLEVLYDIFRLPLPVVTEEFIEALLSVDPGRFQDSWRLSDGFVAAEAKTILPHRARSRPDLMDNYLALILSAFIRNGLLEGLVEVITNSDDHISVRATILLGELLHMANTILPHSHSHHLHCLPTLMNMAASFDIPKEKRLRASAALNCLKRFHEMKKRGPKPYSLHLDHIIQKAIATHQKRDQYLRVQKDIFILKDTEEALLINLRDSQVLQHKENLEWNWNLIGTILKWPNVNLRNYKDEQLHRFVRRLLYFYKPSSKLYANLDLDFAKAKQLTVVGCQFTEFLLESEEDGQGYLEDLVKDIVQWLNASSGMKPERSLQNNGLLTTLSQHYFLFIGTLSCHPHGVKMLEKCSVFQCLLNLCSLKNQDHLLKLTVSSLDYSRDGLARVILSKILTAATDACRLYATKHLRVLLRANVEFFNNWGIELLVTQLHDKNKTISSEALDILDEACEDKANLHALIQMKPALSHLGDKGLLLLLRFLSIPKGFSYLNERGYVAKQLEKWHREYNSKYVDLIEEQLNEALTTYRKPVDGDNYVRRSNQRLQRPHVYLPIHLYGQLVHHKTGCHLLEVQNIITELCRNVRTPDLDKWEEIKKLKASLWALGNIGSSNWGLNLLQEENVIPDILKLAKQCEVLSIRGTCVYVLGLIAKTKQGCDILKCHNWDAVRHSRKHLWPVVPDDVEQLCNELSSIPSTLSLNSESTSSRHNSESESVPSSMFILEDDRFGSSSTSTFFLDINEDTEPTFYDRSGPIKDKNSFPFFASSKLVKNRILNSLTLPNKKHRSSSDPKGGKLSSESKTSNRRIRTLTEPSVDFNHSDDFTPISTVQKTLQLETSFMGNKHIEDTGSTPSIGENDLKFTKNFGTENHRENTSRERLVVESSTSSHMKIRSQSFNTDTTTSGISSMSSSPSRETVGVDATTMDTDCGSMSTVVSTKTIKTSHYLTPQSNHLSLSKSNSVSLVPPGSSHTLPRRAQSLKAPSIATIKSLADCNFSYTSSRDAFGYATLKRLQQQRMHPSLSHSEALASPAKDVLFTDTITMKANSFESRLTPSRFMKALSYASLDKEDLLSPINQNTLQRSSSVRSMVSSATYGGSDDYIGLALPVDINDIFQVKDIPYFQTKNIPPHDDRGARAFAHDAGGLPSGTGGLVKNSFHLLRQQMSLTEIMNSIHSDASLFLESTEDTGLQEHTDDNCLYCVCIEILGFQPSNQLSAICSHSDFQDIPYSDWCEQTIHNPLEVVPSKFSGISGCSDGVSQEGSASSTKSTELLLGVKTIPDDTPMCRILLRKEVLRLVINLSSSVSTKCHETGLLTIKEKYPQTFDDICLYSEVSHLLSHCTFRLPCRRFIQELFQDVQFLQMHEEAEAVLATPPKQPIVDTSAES
UniProt Q9BPZ7: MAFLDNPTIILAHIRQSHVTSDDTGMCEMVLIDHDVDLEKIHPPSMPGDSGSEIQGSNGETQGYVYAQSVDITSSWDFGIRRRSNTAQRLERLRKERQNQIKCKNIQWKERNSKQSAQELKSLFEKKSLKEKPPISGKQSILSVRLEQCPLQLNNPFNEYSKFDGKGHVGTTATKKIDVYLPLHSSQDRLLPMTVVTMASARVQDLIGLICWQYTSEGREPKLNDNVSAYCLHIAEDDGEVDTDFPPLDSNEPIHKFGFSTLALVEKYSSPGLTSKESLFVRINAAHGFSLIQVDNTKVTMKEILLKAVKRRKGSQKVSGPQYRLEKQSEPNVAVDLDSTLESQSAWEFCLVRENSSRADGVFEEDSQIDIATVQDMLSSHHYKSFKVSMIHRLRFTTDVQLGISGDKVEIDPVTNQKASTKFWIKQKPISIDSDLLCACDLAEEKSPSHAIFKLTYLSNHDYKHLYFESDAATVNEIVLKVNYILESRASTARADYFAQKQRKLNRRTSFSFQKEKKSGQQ
UniProt P38398, residues 1650-1863: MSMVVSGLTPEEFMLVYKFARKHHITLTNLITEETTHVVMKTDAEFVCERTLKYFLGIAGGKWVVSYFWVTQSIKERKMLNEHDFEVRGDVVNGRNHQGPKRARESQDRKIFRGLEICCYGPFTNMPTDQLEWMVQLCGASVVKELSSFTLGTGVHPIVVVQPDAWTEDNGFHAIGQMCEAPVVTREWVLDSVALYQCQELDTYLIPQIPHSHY

With “TAP-tagged BRCA1 tBRCT domain (from UniProt P38398 1650-1863) (domain or fragment)” the binding [1] was “binds”, the binding [2] was “binds” and the binding [3] was “binds”.
For “PRR5 (Proline-rich protein 5), GAL4 activation domain fusion (from UniProt P85299 1-388)”, the binding [4] was “binds”.

Reference: paper PMC6928641
